These are yes or no findings as the source states them, for the method shown. A result given as binding can be weak or reduced; the word gives no strength.
Assays:
[1] = target: PCSK9-D374Y mutant protein with His-tag: PCSK9-D374Y-His6 (human); assay: SPR (Biacore)
[2] = target: PCSK9 with His-tag: PCSK9-His6 (human); assay: SPR (Biacore)
[3] = target: PCSK9-D374Y mutant protein with His-tag: PCSK9-D374Y-His6 (human); assay: looks back on the results of Example 6

Measured: binding

B1: humanized antibody h011-3 (antibody, V domains shown)
VH: QVQLVQSGAEVKKPGASVKVSCKASGYTFTGYTIHWVRQAPGQGLEWMGYINPSSTYTKFNQKFKDRVTMTRDTSISTAYMELSRLRSDDTAVYYCARERIYSNYWFFDVWGQGTTVTVSS
VL: DIVMTQSPSSLSASVGDRVTITCKASQNVYTAVAWYQQKPGKSPKLLIYSASNRYTGVPSRFSGSGSGTDFTLTISSLQPEDFATYFCQQYSSYPYTFGGGTKVEIK
binds: all assays above
